PubChem BioAssay AID1159578 – Peter MacCallum Cancer Centre | 2015
Purpose: 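Knock-downs that alter how fast lymphatic endothelial cells migrate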 (primary screen). System: human lymphatic endothelial cells. Knock-down reagent: siRNA pool against human genes, 40 nM. Duration: 48 h after transfection. Measurement: 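High-content imaging of dye-stained cells in a scratch assay measures filled wound area and nuclei per well; duplicate means given as ratio to mock and robust z-score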. Direction: migration robust z-score: higher = faster migration into the scratch; migration relative to mock: higher = more scratch area covered than mock; nuclei per well: higher = more cells in the well. Hit rule: 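Migration changed when robust z exceeds 2 or falls below -2 and mean nuclei number is at least 3300; otherwise not called changed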. Meaning of the calls: active = migration changed; inactive = no migration change, or too few cells.
The whole screen tested about 18,000 reagents; shown is a part drawn at random. Over the whole deposit, about 1,030 (5.7%) are marked active. 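Inactive calls also include pools with fewer than 3300 nuclei, whose migration was not assessed.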 Raw values are not corrected between plates. Entries without a mark were called inactive. Reagent sequences are not shown.

The first 2 records as a preview:
| Target gene | migration robust z-score | migration class with cell-count check | migration relative to mock | nuclei per well, duplicate mean |
| --- | --- | --- | --- | --- |
| GPR19 (G protein-coupled receptor 19) | -0.44 | migration z between -2 and 2; enough cells | 0.72 | 6858 |
| RAPGEF3 (Rap guanine nucleotide exchange factor 3) | -0.23 | migration z between -2 and 2; enough cells | 0.83 | 6097 |

Results, from the start:
| Target gene | migration robust z-score | migration class with cell-count check | migration relative to mock | nuclei per well, duplicate mean |
| --- | --- | --- | --- | --- |
| GPR19 (G protein-coupled receptor 19) | -0.44 | migration z between -2 and 2; enough cells | 0.72 | 6858 |
| RAPGEF3 (Rap guanine nucleotide exchange factor 3) | -0.23 | migration z between -2 and 2; enough cells | 0.83 | 6097 |
| BAZ2A (bromodomain adjacent to zinc finger domain 2A) | 0.27 | migration z between -2 and 2; enough cells | 0.96 | 6234 |
| MORC2 (MORC family CW-type zinc finger 2) | -0.08 | migration z between -2 and 2; enough cells | 0.86 | 5286 |
| ATP2C1 (ATPase secretory pathway Ca2+ transporting 1) | -0.02 | migration z between -2 and 2; enough cells | 0.8 | 5906 |
| GPX2 (glutathione peroxidase 2) | -0.46 | migration z between -2 and 2; enough cells | 0.72 | 5306 |
| NIPSNAP1 (nipsnap homolog 1) | -0.48 | migration z between -2 and 2; enough cells | 0.76 | 5654 |
| APOL2 (apolipoprotein L2) | -1.11 | migration z between -2 and 2; enough cells | 0.6 | 5280 |
| TSPAN33 (tetraspanin 33) | 0.31 | migration z between -2 and 2; enough cells | 0.96 | 6336 |
| JARID2 (jumonji and AT-rich interaction domain containing 2) | -0.18 | migration z between -2 and 2; enough cells | 0.77 | 6237 |
| TNNI1 (troponin I1, slow skeletal type) | 0.94 | migration z between -2 and 2; enough cells | 1.13 | 5648 |
| SLC34A1 | -0.75 | migration z between -2 and 2; enough cells | 0.66 | 3954 |
| ZNF37A (zinc finger protein 37A) | -0.52 | migration z between -2 and 2; enough cells | 0.75 | 4652 |
| HS2ST1 (heparan sulfate 2-O-sulfotransferase 1) | -0.08 | migration z between -2 and 2; enough cells | 0.79 | 5390 |
| EIF3K (eukaryotic translation initiation factor 3 subunit K) | -1.14 | migration z between -2 and 2; enough cells | 0.58 | 3726 |
| RAG2 (recombination activating 2) | -0.57 | migration z between -2 and 2; enough cells | 0.7 | 5788 |
| GPHN (gephyrin) | -0.22 | migration z between -2 and 2; enough cells | 0.83 | 7115 |
| N4BP2L1 (NEDD4 binding protein 2 like 1) | 0.88 | migration z between -2 and 2; enough cells | 1.12 | 5996 |
| SLC35E3 | -0.04 | migration z between -2 and 2; enough cells | 0.87 | 5642 |
| SNX16 (sorting nexin 16) | 0.16 | migration z between -2 and 2; enough cells | 0.92 | 6158 |
| FASTKD2 (FASTK mitochondrial RNA regulator 2) | -2.66 | under 3300 nuclei; migration not judged | 0.18 | 2704 |
| DHRS7B (dehydrogenase/reductase 7B) | -0.18 | migration z between -2 and 2; enough cells | 0.84 | 4080 |
| MCM10 (minichromosome maintenance 10 replication initiation factor) | 0.8 | migration z between -2 and 2; enough cells | 1.09 | 4111 |
| RIPOR2 (RHO family interacting cell polarization regulator 2) | -0.42 | migration z between -2 and 2; enough cells | 0.77 | 5832 |
| GSTO1 (glutathione S-transferase omega 1) | 0.08 | migration z between -2 and 2; enough cells | 0.82 | 4488 |
| CEP170B (centrosomal protein 170B) | 0.22 | migration z between -2 and 2; enough cells | 0.94 | 5344 |
| SNX10 (sorting nexin 10) | 0.54 | migration z between -2 and 2; enough cells | 1.02 | 5933 |
| PHPT1 (phosphohistidine phosphatase 1) | -1.19 | migration z between -2 and 2; enough cells | 0.57 | 4692 |
| SACS (sacsin molecular chaperone) | -0.52 | migration z between -2 and 2; enough cells | 0.75 | 5184 |
| GPC2 (glypican 2) | -0.41 | migration z between -2 and 2; enough cells | 0.78 | 6818 |
| MARCHF8 (membrane associated ring-CH-type finger 8) | 0.08 | migration z between -2 and 2; enough cells | 0.82 | 5630 |
| OR10A2 (olfactory receptor family 10 subfamily A member 2) | -1.58 | migration z between -2 and 2; enough cells | 0.48 | 5404 |
| KMT2C (lysine methyltransferase 2C) | -1.03 | migration z between -2 and 2; enough cells | 0.6 | 5602 |
| LINC00173 (long independently transcribed non-coding RNA 173) | -2.44 (active) | migration z below -2; enough cells | 0.25 | 4348 |
| METAP2 (methionyl aminopeptidase 2) | -1.22 | migration z between -2 and 2; enough cells | 0.57 | 4342 |
| ZNF432 (zinc finger protein 432) | -0.72 | migration z between -2 and 2; enough cells | 0.7 | 5167 |
| MID2 (midline 2) | 0.96 | migration z between -2 and 2; enough cells | 0.99 | 6480 |
| EXD3 (exonuclease 3'-5' domain containing 3) | -0.54 | migration z between -2 and 2; enough cells | 0.74 | 5436 |
| LILRB1 (leukocyte immunoglobulin like receptor B1) | -0.05 | migration z between -2 and 2; enough cells | 0.8 | 4083 |
